Source: US20130217579A1, “Pesticide Preparations Containing N-Substituted 2-Pyrrolidone-4-Carboxylic Acid Esters” (CLARIANT FINANCE (BVI) LIMITED, priority 2010, published 2013)
Some results were stated once for a whole list of compounds, not compound by compound.

Experiment: Determination of the VOC content by gas chromatography, DIN EN ISO 11890-2
Assay type: physicochemical
Conditions: gas chromatographic measurement in accordance with DIN EN ISO 11890-2

## COC(=O)C1CC(=O)N(C)C1 (centres unmarked) [Example 1, methyl N-methyl-2-pyrrolidone-4-carboxylate]
  VOC content: < 0.2 % by weight

## CC(C)COC(=O)C1CC(=O)N(C)C1 (centres unmarked) [Example 2, isobutyl N-methyl-2-pyrrolidone-4-carboxylate]
  VOC content: < 0.2 % by weight
